Assay [1] has as its target 6xHis-tagged recombinant human mCherry-EB3 (human) (UniProt Q9UPY8). Briefly: TIRF microscopy of an in vitro reconstitution; composite assay with Gas2L1, F-actin (1 μM), MTs and EB3; both purified.
In assay [2] the target is T1, bioGFP-Tail, MT-binding C-terminal fragment of Gas2L1 (human) (UniProt Q99501).
T1 sequence (chain, biotin on the AviTag (by co-expressed biotin ligase BirA)): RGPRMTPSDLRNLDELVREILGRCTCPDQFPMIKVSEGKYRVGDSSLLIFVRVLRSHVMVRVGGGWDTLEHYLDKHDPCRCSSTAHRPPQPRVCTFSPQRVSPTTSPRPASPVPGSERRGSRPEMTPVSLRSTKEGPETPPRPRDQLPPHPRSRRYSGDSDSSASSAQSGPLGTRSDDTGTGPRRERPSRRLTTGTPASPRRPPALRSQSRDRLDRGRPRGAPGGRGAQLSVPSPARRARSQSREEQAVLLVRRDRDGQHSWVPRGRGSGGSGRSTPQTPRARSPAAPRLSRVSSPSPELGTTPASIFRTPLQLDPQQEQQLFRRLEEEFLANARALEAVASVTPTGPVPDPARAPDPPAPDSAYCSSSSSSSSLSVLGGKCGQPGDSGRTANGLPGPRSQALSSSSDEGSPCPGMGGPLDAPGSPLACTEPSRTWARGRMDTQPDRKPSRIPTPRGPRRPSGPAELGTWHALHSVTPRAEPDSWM
The experiment in a line: pull-down; biotinylated bioGFP-Gas2L1 fragments on streptavidin Dynabeads, HA-CH co-expressed in HEK293; lysis 50 mM Tris-HCl pH 7.5, 233 mM NaCl, 0.5% Triton X-100, 5 mM MgCl2; 4°C; blot for HA.

Drawing on publication PMC6831992, this text covers binding for two molecules.

No constants are given. Whether binding was seen depends on the method and setting. For some assays here: In cells and extracts the contact can be indirect. Some results given as binding are weak or reduced against the parent protein; the word gives no strength. For some assays here: Sequences can lack the tags named with a protein.

On to “StrepII-GFP-Gas2L1, purified full-length Gas2L1 (from UniProt Q99501 1-681)”, for which the binding entry in assay [1] is recorded as “no binding”.

B1: HA-tagged CH domain of Gas2L1 (domain or fragment, UniProt Q99501 27-148)
chain: EAMKEDLAEWLNALYGLGLPGGGDGFLTGLATGTTLCQHANAVTEAARALAAARPARGVAFQAHSVVPGSFMARDNVATFIGWCRVELGVPEVLMFETEDLVLRKNEKSVVLCLLEVARRGA
Turning to B1, in assay [2], the binding entry is listed as “binds”.
